# Data reported in paper PMC3188500.
# Construct, isoform or probe ends are uncertain for at least one entry.
# Tested on: TATA binding protein (TBP)
# Test: competition (sequestration from fluorescent TFprobe)
# Conditions: 5 mM MgCl2, 10-fold excess over probe, affinity significantly greater than TFprobe, pseudo-Hill coefficient 4.3; 50 mM sodium phosphate pH 7.0, 150 mM NaCl, 5 mM MgCl2, 25 °C; 10 nM labeled TF switch; recombinant protein; folded or branched DNA
sequence,measurement,value
CGTATATAAAGGTTTTTTTCCTTTATATACG [TFDep (unlabeled hairpin depletant)],binding result,binds
